The campaign covered roughly 53,000 sequences. About 3,700 (7%) were called active.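 The calls were made as follows: active = gene knockdowns whose robust z-score for IL-1 alpha signal is at least 2 or at most -2, so actives lie on both sides; inactive = the rest.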 The list shows a part of the results.

The nature of the assay: Components of the Cytosolic LPS Sensing Pathway: Gene Identification via Genome-wide siRNA Screen.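 Also: robust z of the log signal after scaling to non-targeting control siRNA wells of the plate.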 The conditions noted are these: RAW264.7 macrophages, IL-1a HTRF, actives lie on both sides, screened at 100 nM (by protocol), cells primed 5 h with Pam3CSK4 first. In short, it runs like this: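 IL-1a HTRF of supernatants after 24 hour LipidA transfection of Pam3CSK4-primed (5 hours) RAW264.7 cells, 48h post-siRNA transfection (100 nM). Scores: percent of plate negative-control median, then log-based robust z-score.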
Background: Time-resolved FRET reads energy transfer from a long-lived donor to a nearby acceptor.
For the sequence GGCAUUAUCGUGGUUGGCATT against Ntpcr, the z-score was inactive: -1.97.

On to GGAACAAUAUUGAUGAUGUTT against Pten, for which the z-score is inactive: -1.05.

Take GGAGCAUGGUGUGUUGUGATT against Clec9a: the z-score was inactive: 0.0854.

GGAUAGACAGAAAUUCUCATT against Flot1: the z-score was inactive: 1.43.

On to CCACGUGUUUGCAUUCAAATT against Ano5, for which the z-score is inactive: 1.4.

Consider GGUAUUACAAGGUCAUAUCTT against Nol12, for which the z-score is inactive: -0.357.

For the sequence CCUGACCUAAUCGAGAAUGTT against Speer2, the z-score was inactive: -0.279.

Take GGAGGAAAAAUGAAAAGUATT against Clpx: the z-score is inactive: 0.98.

Turning to GCAGCAGUAAUAGUCAUACTT against Ccnj, the z-score is inactive: 0.801.

Turning to GGGUUCAUUCUUAUGUAUGTT against Prr5l, the z-score was inactive: 0.35.

On to GGAACAAUUGUUCCUGUGATT against Kcne1, for which the z-score was active: -2.04.

Take CCGAUUUAAUCUCUUAGAATT against Ets2: the z-score is inactive: 0.9.

With GGUCAAUAUUGGCUUAUGUTT against Tmem42, the z-score is inactive: -1.43.

Regarding GGCGGAAAUGCAAAUGCAATT against Rpf2, the z-score was inactive: 0.202.

With CAUUGGUAUUGCCAAGGCATT against Olfr1330, the z-score is inactive: 0.373.

As for GCAAGCUGUACGCCAAUGUTT against Champ1, the z-score is inactive: 1.73.

In the case of GGAAGGGUCAGAAAAAUGUTT against Slc1a2, the z-score is inactive: 0.202.

Regarding CCGUAAUCGCUGCUUCAUATT against Cideb, the z-score is inactive: 1.44.

In the case of GGAAGGCCCUAGAAAGGACTT against Gm5094, the z-score was inactive: 0.209.

Consider GCCUAGAUACAGCUCCUUGTT against Clybl, for which the z-score was inactive: -0.111.

Turning to GCAUACCUAGACUGAAAACTT against Rilpl2, the z-score was inactive: -0.477.

On to GGAGCUAAAGCUGCUGAUUTT against S100g, for which the z-score was inactive: -0.404.

As to CCUUCUAGAGUACAUCAUATT against Prl7d1, the z-score was inactive: 0.298.

With CGGAUGAUCGAUUUAAAGUTT against Nol10, the z-score was inactive: -0.00606.

On to GGUAUAAGGAUUCUUUGAATT against Alg13, for which the z-score was active: -2.8.

Consider GCCUUCAUCAAAAAACACUTT against Txndc2, for which the z-score was inactive: -0.0169.

On to GCACGAGGAUGUGAUAUUCTT against Txndc2, for which the z-score was inactive: -0.65.

Consider CCGAGAACCGAACUUACCATT against Fam168a, for which the z-score is inactive: 1.3.

Turning to CCUAUCAACCUAAACUCCATT against Car8, the z-score is inactive: -0.459.

For the sequence GGCUUUAGGGAGUUGCUUCTT against Pacrgl, the z-score was inactive: -1.07.

On to GCAUAUUUCUAAGCUGCAUTT against Qdpr, for which the z-score is inactive: -0.439.

Turning to GGACCACCAUUGUGAUCCATT against Kcnk2, the z-score is inactive: 0.808.

Regarding GGAUAGUAACGGAAACUUGTT against Usp25, the z-score was inactive: -0.21.

GGAAGAACUCUCAGAAAAATT against Txk: the z-score was inactive: 0.399.

Take GUUUAAAACCUAUGGCAUCTT against Rps21: the z-score is inactive: 0.374.

In the case of GGGCAUCAGCUAUUAAAGATT against Tpmt, the z-score is inactive: 0.488.

On to GGAAAUGACAUCUUCCUUGTT against Rnf135, for which the z-score was inactive: -0.265.

In the case of GGACUAAGCAGACCAUACATT against Tigar, the z-score was inactive: -0.759.

For CCAGUAACCAGUGCAAUCATT against Tnp2, the z-score was inactive: -0.751.

For the sequence GGUCACUUGGAAUUUGUAATT against Gata6, the z-score was inactive: 1.2.

For GUGGACUUCUUCCUGUUGGTT against Dolk, the z-score was inactive: -0.784.

GGAAAAAGAUCUUGGAAGUTT against Rwdd2a: the z-score is inactive: 0.279.

With GGAAAUCAGUGUCUUUUACTT against Sumf1, the z-score is inactive: 1.03.

As for GCACAUAAAAUGCUCACUGTT against Rgr, the z-score was inactive: -0.084.

As to GGGAAAGUUUUGUUCUGUATT against Ezr, the z-score is inactive: 0.31.

With “CCAAGUAUAGCUAUGCACATT against 4833432P19Rik”, the z-score was inactive: -0.374.

Regarding GCUGCAUUCAGUGAAGAUCTT against Lgals7, the z-score is inactive: -0.635.

Regarding GGAGCUACCUAUCCUUUGUTT against Brinp1, the z-score was inactive: 0.0902.

Consider CCAAAGGUGUGUGAUACUGTT against Fam241b, for which the z-score was inactive: 0.286.

Take GGAAGAAGCAAAGAACUAUTT against Spg20: the z-score was inactive: 0.552.

Turning to GGGCUUUCAAAGAUGAAAUTT against Mas1, the z-score is inactive: -0.214.

Turning to GCUUACAGCAAGAUCAAGGTT against Pip4k2b, the z-score was inactive: -0.21.

Regarding GGAAGUUCCUCUCUACUUATT against Col8a2, the z-score is inactive: -0.126.

Turning to “AUCAAGGUUAUGCAUAACUTT against 3110053B16Rik”, the z-score was inactive: -0.0251.

As to GGCCCAACACCUUUAUCAUTT against Akt1, the z-score was active: 2.77.

As for GGAAGUGCCACCUGUAUUATT against Tbc1d2, the z-score is inactive: -0.564.

For GGUUUGAAAUAUUGUGGAUTT against Spdye4b, the z-score is inactive: -1.23.

GGUGAGAAGGAUUUGUAAATT against Clec4d: the z-score is inactive: -0.0352.

GGCUGGAUGUCAGAUUGCATT against Olfr1389: the z-score is inactive: -1.38.

Turning to GGAAAUCAAAGCUUUUGAGTT against Plaa, the z-score was inactive: 0.494.

Consider CGCACAGGUCAUUCUCGUGTT against Rab3b, for which the z-score is inactive: 0.0202.

In the case of GGACAAGGUAUCAUAUUGGTT against St3gal1, the z-score was inactive: -0.456.

As for GGAAGGCCGCAUACUGAUGTT against Scgn, the z-score was inactive: -0.218.

Regarding GGACAUAACUGUUUUAACATT against Dph7, the z-score is inactive: -1.16.

Regarding GGACACUUCUUAUGAUGACTT against Nrf1, the z-score was inactive: -0.184.

As for GGCCAGGAAAGCUACUUAGTT against Kcnj11, the z-score was inactive: -0.328.

CGAAAGAAGUCAAUACAGATT against Zbtb40: the z-score was inactive: 0.696.

Take GCAUCUGCCAAAUUCAAUGTT against Hsf4: the z-score is inactive: 0.688.

Regarding CCUAUGAAGCUCCAUUAUGTT against Madcam1, the z-score was inactive: -0.195.

In the case of AACAGGAAUCUUCUGUAGUTT against Ttc9c, the z-score was inactive: -0.0255.

Take GGGAAUUUGAGACCAUUUATT against Stap1: the z-score was inactive: 0.356.

GCUCCAUGGAUAUUUCUGGTT against Pias1: the z-score is inactive: -0.178.

For the sequence GGACAGACUGAUUUACAAATT against Nav2, the z-score was inactive: 1.46.

Take GGUUGCAUUGGGAACUUUCTT against Cd82: the z-score is inactive: 0.172.

In the case of GCCACACUGAAAUAAUUUGTT against Slco1a4, the z-score is inactive: -0.817.

With GGCCUUUAUCAGAAAGGUGTT against Grina, the z-score was inactive: -1.48.

In the case of GGGUCAUUGUUUUUUCUGUTT against Armc10, the z-score is inactive: -1.04.

In the case of GGCAUCUCACUGGAAGUGATT against Txndc11, the z-score is inactive: -0.186.

Regarding CCACAGCACCGGAUAAAACTT against Mrgprb3, the z-score was inactive: -0.0665.

Regarding GGAAUAAAGAAGUGAAAUCTT against Olfr1009, the z-score was inactive: 0.233.

For the sequence GUAGUUGUUCUGAGAAAUCTT against Krtap19-2, the z-score was inactive: -0.49.

Consider CCAAAUUGCUUACAUGAUATT against Greb1, for which the z-score is inactive: 1.44.

Regarding GCAAGAUACUGACCACUAGTT against Krt25, the z-score is inactive: 0.14.

For GCUGAUGCGGAGAUUUUGGTT against Thap12, the z-score was inactive: -0.191.

Regarding GGAACUCGUCAUGAGAGAATT against Cndp1, the z-score was inactive: -0.155.

For the sequence GGCUAAUGAAGCACGCAGATT against Tspan33, the z-score was inactive: 0.264.

In the case of GCCACAAUGGGCAGUCUUATT against Kcp, the z-score is inactive: 0.0139.

GGAGAACGAAAGGAUGAAATT against Rpusd4: the z-score is inactive: -1.55.

In the case of GGAUAACUUGAUCCACCACTT against Olfr382, the z-score is inactive: 0.26.

Take GGAGAUCGAUGGAGACUUCTT against Sftpa1: the z-score is inactive: -0.773.

With GGAUUUAGUGUAAUGCCAATT against Pfn4, the z-score was inactive: -0.354.

As to CGAGCACACUUUUGAAGAATT against Gm5089, the z-score is inactive: 1.33.

As to GCCAGUAUGCAAAGACUCATT against Gm4788, the z-score is inactive: 0.806.

As for GGACACAGACAUGUAUAAUTT against Sorbs2, the z-score is inactive: -0.174.

On to GCAGCAAGCUUAAUUACAGTT against Lins1, for which the z-score was inactive: -1.32.

Regarding CGGUUACAGGUGAAAUCCUTT against Sval1, the z-score is inactive: -1.36.

For the sequence GGUAAUUAGUGAAAUGGUUTT against Pum2, the z-score was inactive: -1.32.

Turning to CCCAGUUGGUGUUUAUAUATT against Ppp3cb, the z-score is inactive: 0.115.

For CGAUUUGGCCUUGAUGGGUTT against Wtip, the z-score is inactive: 0.116.

Take GCGGUUAGUGAAAGAAGGATT against Pptc7: the z-score is inactive: 0.132.

Take GCAGACCAUAUUACAAGUUTT against Herc3: the z-score is inactive: 1.04.

With GCAAUGCAUGAAGACUCGUTT against Ecsit, the z-score was inactive: 0.835.

For the sequence GCAGAUGAUACCUGGGCAATT against Mtmr14, the z-score was active: 2.68.

Regarding CCAAGAGUUGUCAAUAUAATT against Crisp3, the z-score was inactive: 0.768.

For the sequence GGCUAUAAAGAAGAGUCUGTT against Adhfe1, the z-score was inactive: -0.572.

As for GCUAACAUGUGUGCAGACCTT against Csf2, the z-score was inactive: -0.185.

Consider GCUAAGUACAACUUCACAATT against Olfr303, for which the z-score is inactive: -0.918.

The values above are taken from PubChem BioAssay AID1508600 (Functional Genomics Laboratory (NCATS/FGL), 2020).
